Common to all, as to assay type: cell-based
For one assay, the system named is MCF-7. Nature of the assay: MTT cell viability assay, MCF-7. The conditions noted are these: Homo sapiens, MCF7, 48 h, read-out: Cancer cells (IC50, μM) MCF-7.
The next assay has as its system HepG2. Nature of the assay: MTT cell viability assay, HepG2. Particulars: Homo sapiens, HepG2, 48 h, read-out: Cancer cells (IC50, μM) HepG2. On the technique in general: Formazan colour is commonly taken as a measure of viable cells.
The subject of the next assay is MCF-10A. Put plainly: MTT cell viability assay, MCF-10A normal cells. The conditions noted are these: Homo sapiens, 48 h, read-out: Normal cells (IC50, μM) MCF-10A.
A further assay concerns LO2. Nature of the assay: MTT cell viability assay, LO2 normal cells. Particulars: Homo sapiens, L02, 48 h, read-out: Normal cells (IC50, μM) LO2.
In a further assay the test system is HeLa cells. Put plainly: Cell growth inhibition / MTT cell viability assay, HeLa. The conditions noted are these: Homo sapiens, 48 h, read-out: Cancer cells (IC50, μM) HeLa.
A further assay concerns MDA-MB-231. Put plainly: MTT cell viability assay, MDA-MB-231. The conditions noted are these: Homo sapiens, MDA-MB-231, 48 h, read-out: Cancer cells (IC50, μM) MDA-MB-231.

For the compound `Cc1ccc(NC(=O)c2ccc(CN3CCN(C)CC3)cc2)cc1Nc1nccc(-c2cccnc2)n1` [Imatinib, imatinib], the IC50 was 40.08 ± 0.35 µM in the assay on MCF-7; 28.08 ± 0.25 µM in the assay on HepG2; 39.4 ± 0.42 µM in the assay on MCF-10A; 87.67 ± 0.31 µM in the assay with LO2; 37.3 ± 0.22 µM in the assay on HeLa cells; 28.19 ± 0.24 µM with MDA-MB-231.

What is called IC50 is the concentration that gives 50% inhibition.

Source of the values: publication PMC8266240 (Journal of Enzyme Inhibition and Medicinal Chemistry, 2021).
